The test deals with Lysine-specific demethylase 6A (KDM6A) (mouse (endogenous in 266-6)) (UniProt O70546). The experiment in a line: co-IP; endogenous proteins; nuclear extract of 266-6 mouse acinar cells equilibrated to 150 mM NaCl, 4 mg extract incubated overnight with 2 ug anti-KDM6A, anti-HNF1A or normal rabbit IgG, Dynabeads Protein G, washes with 10 mM Tris-HCl pH 8, 150 mM NaCl, 0.1% NP-40, 1 mM EDTA; Western blot.

Protein sequences, listed by entry. Tags and fused reporters are not part of them.
UniProt O70546: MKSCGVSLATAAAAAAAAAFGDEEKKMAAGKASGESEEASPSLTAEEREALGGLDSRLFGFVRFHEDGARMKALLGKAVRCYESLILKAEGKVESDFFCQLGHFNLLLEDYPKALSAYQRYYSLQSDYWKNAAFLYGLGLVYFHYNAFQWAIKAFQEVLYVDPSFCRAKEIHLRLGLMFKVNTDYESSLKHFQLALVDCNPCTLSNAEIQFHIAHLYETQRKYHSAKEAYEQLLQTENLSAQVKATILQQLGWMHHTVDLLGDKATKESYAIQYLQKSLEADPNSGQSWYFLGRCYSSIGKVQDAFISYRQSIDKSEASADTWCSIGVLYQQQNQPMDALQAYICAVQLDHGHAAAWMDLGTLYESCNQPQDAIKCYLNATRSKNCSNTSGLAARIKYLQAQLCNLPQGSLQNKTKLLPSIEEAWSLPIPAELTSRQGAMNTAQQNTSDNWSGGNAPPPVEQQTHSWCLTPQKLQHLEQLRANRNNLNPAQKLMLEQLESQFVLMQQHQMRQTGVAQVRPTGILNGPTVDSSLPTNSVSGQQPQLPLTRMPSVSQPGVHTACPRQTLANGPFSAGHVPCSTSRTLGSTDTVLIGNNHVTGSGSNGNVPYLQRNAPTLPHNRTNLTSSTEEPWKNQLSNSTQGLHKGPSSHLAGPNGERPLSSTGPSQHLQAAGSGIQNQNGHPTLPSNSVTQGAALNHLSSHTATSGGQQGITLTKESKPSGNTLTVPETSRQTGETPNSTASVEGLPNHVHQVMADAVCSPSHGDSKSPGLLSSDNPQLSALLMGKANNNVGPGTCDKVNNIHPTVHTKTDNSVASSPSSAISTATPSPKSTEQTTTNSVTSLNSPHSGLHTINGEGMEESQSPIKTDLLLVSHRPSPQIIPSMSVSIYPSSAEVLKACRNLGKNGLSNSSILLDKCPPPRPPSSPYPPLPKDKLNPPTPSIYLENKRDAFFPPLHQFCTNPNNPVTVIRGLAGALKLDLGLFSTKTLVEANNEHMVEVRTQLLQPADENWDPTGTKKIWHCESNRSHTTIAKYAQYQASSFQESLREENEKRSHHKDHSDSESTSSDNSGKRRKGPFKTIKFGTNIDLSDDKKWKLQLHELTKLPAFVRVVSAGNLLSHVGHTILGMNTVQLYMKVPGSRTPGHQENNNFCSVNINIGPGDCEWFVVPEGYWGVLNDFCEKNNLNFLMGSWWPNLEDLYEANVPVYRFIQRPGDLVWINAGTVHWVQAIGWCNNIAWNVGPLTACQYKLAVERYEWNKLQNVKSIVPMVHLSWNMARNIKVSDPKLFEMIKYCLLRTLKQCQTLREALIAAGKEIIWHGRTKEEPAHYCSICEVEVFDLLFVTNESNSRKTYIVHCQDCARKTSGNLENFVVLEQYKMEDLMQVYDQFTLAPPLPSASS
UniProt P22361: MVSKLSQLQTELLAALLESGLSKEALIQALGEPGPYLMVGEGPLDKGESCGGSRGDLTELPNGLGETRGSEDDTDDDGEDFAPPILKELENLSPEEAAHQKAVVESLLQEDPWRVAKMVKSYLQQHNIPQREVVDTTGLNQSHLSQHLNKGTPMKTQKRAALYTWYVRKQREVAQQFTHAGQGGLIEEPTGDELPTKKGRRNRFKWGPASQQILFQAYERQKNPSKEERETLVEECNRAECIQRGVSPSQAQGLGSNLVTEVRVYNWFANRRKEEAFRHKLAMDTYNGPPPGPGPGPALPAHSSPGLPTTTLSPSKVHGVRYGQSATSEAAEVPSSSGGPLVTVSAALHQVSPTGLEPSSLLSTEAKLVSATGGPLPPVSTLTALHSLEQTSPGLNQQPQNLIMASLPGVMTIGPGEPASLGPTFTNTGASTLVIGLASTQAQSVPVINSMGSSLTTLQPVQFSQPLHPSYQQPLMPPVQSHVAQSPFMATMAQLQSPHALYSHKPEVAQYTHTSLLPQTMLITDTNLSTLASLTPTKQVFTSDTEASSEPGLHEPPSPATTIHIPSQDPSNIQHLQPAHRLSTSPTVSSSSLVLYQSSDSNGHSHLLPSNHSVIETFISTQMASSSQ

Consider one substance from PMC7196917.

No constants are given. Whether binding was seen depends on the method and setting. Binding seen in cells or lysates may run through a third protein. Some entries that bind do so weakly or less than the wild type.

For HNF1A (from UniProt P22361 1-628), the binding entry is recorded as “binds”.
